Literature values in patent US6479487B1, “6, 9-disubstituted 2-[trans-(4-aminocyclohexyl)amino] purines” (Aventis Pharmaceuticals Inc., priority 1998, dated 2002).

Test system: 60 human tumour cell lines
Settings: read-out: average IC50, proliferation of 60 human tumour cell lines; NCI screen, nine tumour types; Meijer et al.; cited from earlier work

CCC(CO)Nc1nc(NCc2ccccc2)c2ncn(C(C)C)c2n1 (stereo not shown) [roscovitine, 2-(1-ethyl-2-hydroxyethylamino)-6-benzylamino-9-isopropylpurine]
IC50: 16 µM
